Over roughly 33,000 sequences, “E-score (-0.5 to 0.5)” has its median near -8e-05; the highest 2% begin near 0.23. This is one part of the list.
molecular target: T1, Nrg2 (UniProt P38082); assay: PBM E-score (8-mer binding enrichment) (E-score (-0.5 to 0.5)); higher = stronger / more preferred TF binding; conditions: protein concentration: 100 nM; construct: GST-full length
T1 sequence: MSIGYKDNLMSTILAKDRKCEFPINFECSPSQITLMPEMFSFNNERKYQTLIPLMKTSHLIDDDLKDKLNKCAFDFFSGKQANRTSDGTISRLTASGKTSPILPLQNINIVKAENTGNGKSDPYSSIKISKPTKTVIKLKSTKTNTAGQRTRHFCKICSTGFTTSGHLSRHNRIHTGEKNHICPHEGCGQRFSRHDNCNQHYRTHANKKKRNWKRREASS
Procedure: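 Universal 'all 10-mer' protein binding microarrays (Agilent AMADID 015681) probed with GST-tagged S. cerevisiae TFs (full-length or DBD) made by in vitro transcription/translation (PURExpress), about 100-200 nM. Bound TF was detected with fluorescent anti-GST. Each ungapped 8-mer (which stands for itself and its reverse complement) is scored by the PBM enrichment score (E-score), a modified Wilcoxon-Mann-Whitney statistic from -0.5 to +0.5, computed with the Universal PBM Analysis Suite. Scale: above 0.35 generally sequence-specific binding.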

| Sequence | PBM E-score |
| --- | --- |
| TGCGTACA | 0.00957 |
| CGCTGAGA | 0.101 |
| TACAACAA | 0.137 |
| GCCAGAAA | 0.189 |
| AACCTTAC | 0.108 |
| CTGTGGTA | 0.0338 |
| CAGCAGTC | -0.0644 |
| CCATATAC | 0.106 |
| ATTGATAG | -0.0275 |
| AGGGCGGC | -0.15 |
| ACACTTCT | -0.0302 |
| CTATGAAA | 0.094 |
| ATATAACA | 0.078 |
| GACACCTA | -0.0331 |
| GTTCATAA | 0.00496 |
| AATCTACC | -0.0203 |
| GTCTGTTA | 0.0486 |
| CGAATGAG | 0.0496 |
| ATTTTACG | 0.123 |
| GGCTAAAA | -0.179 |
| CCTCTAAC | -0.116 |
| ACTGACAT | 0.0848 |
| ATAGATCC | 0.0868 |
| AGACGAGA | 0.0307 |
| GCCATGTA | -0.00257 |

2 entries from above, reformatted:
Sequence,PBM E-score
GTCTGTTA,0.0486
CCTCTAAC,-0.116

(continued)

| Sequence | PBM E-score |
| --- | --- |
| TAATAACA | 0.00017 |
| ACGATCCA | -0.0753 |
| CAGTAATC | 0.0128 |
| AGACAAAG | -0.0323 |
| AACTTTAT | 0.124 |
| CCACTCCG | 0.0616 |
| AAGCTACG | 0.00996 |
| CTTAGTCA | -0.0736 |
| GATTGAGA | 0.227 |
| AAGGTTGG | -0.0643 |
| GTATTGGA | -0.161 |
| GCCGAAAC | -0.0148 |
| AATTAGAT | 0.182 |
| GCATCGCA | -0.109 |
| AACGATAC | 0.00715 |
| GATAGTCC | 0.0182 |
| GCAATGCC | 0.00399 |
| CCACGTAA | -0.0711 |
| GGACAAGA | 0.159 |
| ATATTCAA | 0.244 |
| ACCGGATC | -0.0249 |
| GTCCCCCA | -0.24 |
| CCTAAGAA | -0.0478 |
| TAACCCTA | 0.0534 |
| GCGTAGCA | 0.12 |

| Sequence | PBM E-score |
| --- | --- |
| ACCGCCGT | 0.00098 |
| TAGTTTAA | 0.0774 |
| AACTCATT | -0.0375 |
| AGTGGCCA | -0.00148 |
| CATGCATG | 0.0614 |
| AGAATACC | 0.191 |
| AGTACCGG | -0.203 |
| CTAAGTAG | 0.136 |
| GAGGTCGC | -0.194 |
| CGAGACTC | -0.0745 |
| GACCGGGC | -0.143 |
| AATTACCA | 0.0983 |
| CTAACCTA | 0.168 |
| GAATCGAC | 0.192 |
| GAGACTGA | -0.0293 |
| CGCTTACA | -0.0388 |
| GCCCATAA | -0.107 |
| CTGTAGCC | -0.207 |
| GCTCACCA | -0.0261 |
| TGTAGCAA | 0.0839 |
| ATTATGTC | 0.039 |
| AAGCTTCC | -0.206 |
| GGGCAGGA | -0.0226 |
| CTTGGGCA | 0.0776 |
| GCTCCCCA | -0.225 |

| Sequence | PBM E-score |
| --- | --- |
| ATAGATTC | -0.0319 |
| ATACGTAT | 0.176 |
| AACGATTA | 0.00656 |
| ATCGGCGA | -0.0472 |
| ATGGCACG | -0.0541 |
| CAACATGG | -0.0246 |
| ACCCTGCA | 0.376 |
| GGGACGTA | -0.0296 |
| AAAAGTGT | 0.0195 |
| AGCATGGG | -0.175 |
| GAATGAGA | 0.114 |
| AATGTGCA | 0.0816 |
| GGAGTGCA | 0.0599 |
| AGTGAGCG | 0.0427 |
| GTAAATAC | -0.0746 |
| AAGCAAGC | -0.0394 |
| AAGTTTCC | 0.133 |
| TTGCGAAA | 0.153 |
| GAAAAGTA | 0.0939 |
| AGAGCTAG | -0.00296 |
| CTAGAGGA | -0.244 |
| GTAGTCAC | -0.0849 |
| AAGGGGTG | -0.00477 |
| CGCTACTC | -0.0612 |
| ACTTCGAT | 0.152 |

| Sequence | PBM E-score |
| --- | --- |
| AGTGTAGC | 0.0126 |
| GCCTGCAA | 0.0554 |
| GATCTGCC | 0.0212 |
| AAAGAATC | -0.18 |
| GAGCAGCA | -0.0138 |
| ACAGCAAT | 0.175 |
| CCGTTCCC | -0.0441 |
| ATACGATC | 0.196 |
| CGATGAAC | -0.0145 |
| ACAAGTGG | -0.0859 |
| AGGCGGTC | -0.0583 |
| CCTCGCGA | 0.179 |
| ATCCGTAC | 0.0682 |
| ACATGCAA | 0.125 |
| CTTAAACC | -0.128 |
| GACAATCA | 0.0629 |
| CACGTGGC | -0.313 |
| CCTGTTTA | 0.0654 |
| CGAGTAAG | 0.165 |
| GGCCCACA | -0.0257 |
| GGACCACC | 0.0365 |
| AGCTAGTA | 0.214 |
| CTTCAAAC | 0.0644 |
| GCGATGAA | 0.0982 |
| AGCTAGCT | 0.244 |

Seven entries from above, with bars between the fields.
Sequence | PBM E-score
CCGTTCCC | -0.0441
CGATGAAC | -0.0145
ACAAGTGG | -0.0859
ATCCGTAC | 0.0682
ACATGCAA | 0.125
GACAATCA | 0.0629
CCTGTTTA | 0.0654

The results go on:

| Sequence | PBM E-score |
| --- | --- |
| AGTATTTA | 0.0065 |
| CTGAAACA | -0.107 |
| ATGGTAGA | 0.0815 |
| GAGGAGGC | -0.313 |
| AACACGGT | 0.00997 |
| AACAAATT | 0.251 |
| CTTTCTTC | 0.118 |
| CGATGTAG | -0.117 |
| GGAACATA | 0.0695 |
| CTAACGGA | 0.101 |
| AGAAATAC | 0.128 |
| AGGATACG | -0.197 |
| CCTTAACG | -0.00697 |
| CACCACCA | -0.0541 |
| AAATGCGG | 0.0989 |
| GTTTGAAA | 0.169 |
| ACAATGTG | 0.0207 |
| GCCACATA | 0.075 |
| CGCTTACC | -0.0993 |
| ACATGCGT | -0.0879 |
| CGACGGAC | 0.197 |
| CCATTGGA | 0.00188 |
| GATGTGTA | 0.0509 |
| ATCAAGCG | 0.0683 |
| CATTTCGC | 0.184 |

| Sequence | PBM E-score |
| --- | --- |
| CTTTGCGC | 0.136 |
| AAAATGAA | 0.0156 |
| GCGCATTA | 0.166 |
| AGATCTTA | -0.0553 |
| GTTACTCA | 0.157 |
| CTTGCGCA | 0.264 |
| CGGGATGC | -0.163 |
| CGTGATGC | -0.00211 |
| CCGACGGC | -0.193 |
| CAGTCCCG | -0.128 |
| CGTGTCAA | -0.274 |
| GCGATTAA | 0.193 |
| AGTAGCTG | -0.116 |
| AACTATAT | 0.153 |
| GAGGCGTA | 0.0454 |
| CGTGCTAG | -0.162 |
| ATCATCTG | 0.108 |
| ACCATTTG | 0.0653 |
| AAGATTTC | 0.139 |
| TCAGACCA | 0.00081 |
| AGCTTGAA | -0.0726 |
| GAACTAAA | 0.0925 |

3 consecutive records already listed, for reference:

| Sequence | PBM E-score |
| --- | --- |
| AACTATAT | 0.153 |
| GAGGCGTA | 0.0454 |
| CGTGCTAG | -0.162 |

Reference: the supplement of paper PMC3334620
